Assay results published in US4537924A, “Quadratic acid amide derivatives, their use as stabilizers, and synthetic resins treated therewith” (Chemische Werke Huels, AG, priority 1982, dated 1985).

Legend:
[1] = Light exposure test with stabilizers in polyether esters, change in viscosity (J value); conditions: 0.5% by wt. stabilizer in polyether ester
[2] = Stabilizing effect with polystyrene, yellowness index after irradiation; conditions: 0.11% by wt. stabilizer

SMILES | Decrease in J-value ([1]; after 20 days) [%] | Decrease in J-value ([1]; after 40 days) [%] | Yellowness index after irradiation period ([2]; 750 hrs., 0-7.5 very low, 10-20 medium-strong, above 20 strong yellowing) | Yellowness index after irradiation period ([2]; 1230 hrs., without stabilizer 22.1)
CC1(C)CC(OC(=O)CCCCCCCCC(=O)OC2CC(C)(C)NC(C)(C)C2)CC(C)(C)N1 [Comparative Example A, sebacic acid di-4-hydroxy-2,2,6,6-tetramethylpiperidine ester] | 5 | 8 |  | 
CC(C)(C)c1ccc(OC(=O)c2cc(C(C)(C)C)c(O)c(C(C)(C)C)c2)c(C(C)(C)C)c1 [H] |  |  | 12.9 | 18.9
